Measured values from the supplement of paper PMC6078165.
Values are relative to the signal before dosing, not to a vehicle control; the signal also falls without drug.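 Fibroblast labels name human fibroblasts: mostly primary ones from tissues such as uterus (C12385, HUF), lung (H6013), bone (Hs27A), adrenal (HADF) and skin (WS1), plus mammary HMF and breast cancer-associated Hs343T. The cancer cells are basal-like or mesenchymal-like triple-negative breast cancer lines. The paper calls a changed response a hit when it shifts by more than 3x the replicate standard deviation. The tissue of the other fibroblasts is not given here.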

Test system: MDAMB231
Assay: relative JC-1 red fluorescence (viability) vs pre-drug, coculture with fibroblast (fraction); higher = more viable cancer cells
Protocol: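 JC-1 labelled TNBC cells cocultured 1:1 (1,500 cells each) with CellTrace Violet stained primary or stromal fibroblasts in 384-well plates in FluoroBrite medium, treated with one of 42 anticancer drugs at 0.1, 1, 10 or 100 uM. JC-1 red fluorescence (mitochondrial integrity in cancer cells only) was read by plate reader every 8 h for 72 h. Values are normalised to each well's pre-drug value. The stock of one drug was tenfold lower, so its dose labels may be too high.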

N.N.[Cl][Pt][Cl] [Cisplatin]
relative JC-1 red fluorescence
Details | 8 h | 16 h | 24 h | 32 h | 40 h | 48 h | 56 h | 64 h | 72 h
10 µM, coculture fibroblast: C12385 | 0.7627 | 0.711 | 0.6464 | 0.614 | 0.553 | 0.528 | 0.49 | 0.483 | 0.467
10 µM, coculture fibroblast: H6013 | 0.882 | 0.837 | 0.8195 | 0.7992 | 0.768 | 0.746 | 0.725 | 0.707 | 0.667
10 µM, coculture fibroblast: H6019 | 0.77 | 0.699 | 0.7234 | 0.677 | 0.643 | 0.638 | 0.594 | 0.599 | 0.575
10 µM, coculture fibroblast: H6076 | 0.89 | 0.803 | 0.7468 | 0.721 | 0.684 | 0.64 | 0.614 | 0.599 | 0.586
10 µM, coculture fibroblast: H6231 | 0.921 | 0.823 | 0.741 | 0.678 | 0.619 | 0.577 | 0.533 | 0.51 | 0.486
10 µM, coculture fibroblast: HADF | 0.8871 | 0.8366 | 0.7906 | 0.746 | 0.711 | 0.663 | 0.648 | 0.636 | 0.588
10 µM, coculture fibroblast: HCFa | 0.886 | 0.829 | 0.7853 | 0.751 | 0.6921 | 0.6541 | 0.615 | 0.586 | 0.535
10 µM, coculture fibroblast: HCPF | 0.8564 | 0.753 | 0.687 | 0.65 | 0.586 | 0.548 | 0.514 | 0.488 | 0.469
10 µM, coculture fibroblast: HHSteC | 0.8905 | 0.8524 | 0.803 | 0.768 | 0.721 | 0.696 | 0.6486 | 0.635 | 0.5911
10 µM, coculture fibroblast: HMF | 0.892 | 0.8096 | 0.7456 | 0.701 | 0.6603 | 0.6191 | 0.5886 | 0.561 | 0.5443
10 µM, coculture fibroblast: HPFa | 0.9249 | 0.895 | 0.848 | 0.797 | 0.77 | 0.739 | 0.696 | 0.67 | 0.638
10 µM, coculture fibroblast: HUF | 0.818 | 0.717 | 0.727 | 0.6247 | 0.567 | 0.5531 | 0.503 | 0.5049 | 0.5031
10 µM, coculture fibroblast: Hs5 | 0.859 | 0.777 | 0.7118 | 0.6587 | 0.6073 | 0.553 | 0.5218 | 0.509 | 0.505
10 µM, coculture fibroblast: Hs27A | 0.897 | 0.849 | 0.813 | 0.796 | 0.762 | 0.697 | 0.712 | 0.702 | 0.661
10 µM, coculture fibroblast: Hs343T | 0.868 | 0.783 | 0.701 | 0.657 | 0.611 | 0.553 | 0.505 | 0.485 | 0.459
10 µM, coculture fibroblast: WS1 | 0.741 | 0.6677 | 0.644 | 0.583 | 0.532 | 0.513 | 0.475 | 0.478 | 0.465
100 µM, coculture fibroblast: C12385 | 0.759 | 0.70753 | 0.683 | 0.665 | 0.565 | 0.501 | 0.485 | 0.5 | 0.493
100 µM, coculture fibroblast: H6013 | 0.902 | 0.847 | 0.8083 | 0.79328 | 0.7429 | 0.721 | 0.676 | 0.645 | 0.594
100 µM, coculture fibroblast: H6019 | 0.764 | 0.739 | 0.719 | 0.672 | 0.616 | 0.59 | 0.549 | 0.537 | 0.504
100 µM, coculture fibroblast: H6076 | 0.8265 | 0.757 | 0.732 | 0.695 | 0.657 | 0.606 | 0.5819 | 0.5542 | 0.535
100 µM, coculture fibroblast: H6231 | 0.905 | 0.817 | 0.763 | 0.722 | 0.678 | 0.639 | 0.5992 | 0.584 | 0.564
100 µM, coculture fibroblast: HADF | 0.868 | 0.84621 | 0.818 | 0.7845 | 0.745 | 0.695 | 0.673 | 0.647 | 0.59
100 µM, coculture fibroblast: HCFa | 0.905 | 0.848 | 0.8018 | 0.76594 | 0.711 | 0.655 | 0.623 | 0.577 | 0.527
100 µM, coculture fibroblast: HCPF | 0.853 | 0.767 | 0.727 | 0.724 | 0.68 | 0.651 | 0.618 | 0.59 | 0.58
100 µM, coculture fibroblast: HHSteC | 0.90092 | 0.89 | 0.8581 | 0.822 | 0.795 | 0.773 | 0.717 | 0.702 | 0.659
100 µM, coculture fibroblast: HMF | 0.8254 | 0.736 | 0.6991 | 0.6755 | 0.636 | 0.603 | 0.579 | 0.57 | 0.545
100 µM, coculture fibroblast: HPFa | 0.9093 | 0.872 | 0.84 | 0.797 | 0.778 | 0.756 | 0.705 | 0.676 | 0.625
100 µM, coculture fibroblast: HUF | 0.841 | 0.768 | 0.792 | 0.708 | 0.646 | 0.629 | 0.583 | 0.584 | 0.566
100 µM, coculture fibroblast: Hs5 | 0.844 | 0.788 | 0.765 | 0.724 | 0.682 | 0.6229 | 0.595 | 0.563 | 0.543
100 µM, coculture fibroblast: Hs27A | 0.8835 | 0.853 | 0.829 | 0.806 | 0.749 | 0.681 | 0.682 | 0.658 | 0.607
100 µM, coculture fibroblast: Hs343T | 0.857 | 0.783 | 0.772 | 0.752 | 0.702 | 0.658 | 0.625 | 0.616 | 0.591
100 µM, coculture fibroblast: WS1 | 0.728 | 0.691 | 0.632 | 0.627 | 0.5892 | 0.541 | 0.49454 | 0.481 | 0.4564
